Experimental data from article PMC10250233.
Results are given in words; binding and its absence hold for the method and conditions named. In cells and extracts the contact can be indirect. Some entries that bind do so weakly or less than the wild type.

T1: CTC1 (largest subunit of human CTC1-STN1-TEN1, CST) (human) (UniProt Q2NKJ3)
T1 sequence: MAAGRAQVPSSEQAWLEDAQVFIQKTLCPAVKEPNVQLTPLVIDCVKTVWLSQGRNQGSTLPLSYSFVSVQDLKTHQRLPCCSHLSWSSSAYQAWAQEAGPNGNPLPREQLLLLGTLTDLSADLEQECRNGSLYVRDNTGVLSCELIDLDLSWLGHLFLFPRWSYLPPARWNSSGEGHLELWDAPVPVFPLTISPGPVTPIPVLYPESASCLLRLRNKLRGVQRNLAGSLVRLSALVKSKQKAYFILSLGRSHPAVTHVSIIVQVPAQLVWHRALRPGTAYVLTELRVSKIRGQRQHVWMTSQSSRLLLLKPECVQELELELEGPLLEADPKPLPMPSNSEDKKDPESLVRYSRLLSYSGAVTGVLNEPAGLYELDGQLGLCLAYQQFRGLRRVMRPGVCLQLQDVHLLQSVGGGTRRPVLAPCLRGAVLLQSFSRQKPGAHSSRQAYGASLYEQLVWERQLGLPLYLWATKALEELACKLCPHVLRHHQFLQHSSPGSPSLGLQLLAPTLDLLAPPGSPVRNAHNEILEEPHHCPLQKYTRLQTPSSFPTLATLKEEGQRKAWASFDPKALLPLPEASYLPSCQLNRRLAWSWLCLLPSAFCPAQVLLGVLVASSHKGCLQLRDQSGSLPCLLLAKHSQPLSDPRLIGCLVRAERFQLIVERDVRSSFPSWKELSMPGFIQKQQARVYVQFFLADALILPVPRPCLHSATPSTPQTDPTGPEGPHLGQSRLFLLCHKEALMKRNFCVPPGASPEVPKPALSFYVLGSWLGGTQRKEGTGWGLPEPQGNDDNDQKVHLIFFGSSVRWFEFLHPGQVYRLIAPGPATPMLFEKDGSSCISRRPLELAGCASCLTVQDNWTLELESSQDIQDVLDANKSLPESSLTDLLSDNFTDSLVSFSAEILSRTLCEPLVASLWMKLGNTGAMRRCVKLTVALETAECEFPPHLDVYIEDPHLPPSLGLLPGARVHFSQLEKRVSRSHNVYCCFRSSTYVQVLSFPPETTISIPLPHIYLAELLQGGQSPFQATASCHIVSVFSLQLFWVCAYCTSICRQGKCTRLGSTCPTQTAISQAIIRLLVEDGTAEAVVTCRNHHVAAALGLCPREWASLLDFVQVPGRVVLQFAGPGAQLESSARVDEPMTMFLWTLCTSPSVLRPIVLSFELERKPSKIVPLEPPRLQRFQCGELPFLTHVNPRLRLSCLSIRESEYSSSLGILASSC

B1: STN1 (medium subunit of human CTC1-STN1-TEN1, CST) (protein, UniProt Q9H668 1-368)
chain: MQPGSSRCEEETPSLLWGLDPVFLAFAKLYIRDILDMKESRQVPGVFLYNGHPIKQVDVLGTVIGVRERDAFYSYGVDDSTGVINCICWKKLNTESVSAAPSAARELSLTSQLKKLQETIEQKTKIEIGDTIRVRGSIRTYREEREIHATTYYKVDDPVWNIQIARMLELPTIYRKVYDQPFHSSALEKEEALSNPGALDLPSLTSLLSEKAKEFLMENRVQSFYQQELEMVESLLSLANQPVIHSASSDQVNFKKDTTSKAIHSIFKNAIQLLQEKGLVFQKDDGFDNLYYVTREDKDLHRKIHRIIQQDCQKPNHMEKGCHFLHILACARLSIRPGLSEAVLQQVLELLEDQSDIVSTMEHYYTAF
B2: TEN1 (small subunit of human CTC1-STN1-TEN1, CST) (protein, UniProt Q86WV5 1-123)
chain: MMLPKPGTYYLPWEVSAGQVPDGSTLRTFGRLCLYDMIQSRVTLMAQHGSDQHQVLVCTKLVEPFHAQVGSLYIVLGELQHQQDRGSVVKARVLTCVEGMNLPLLEQAIREQRLYKQERGGSQ

Target: T1, CTC1 (largest subunit of human CTC1-STN1-TEN1, CST) (human)
Test: pull-down; tandem affinity co-purification from lysate of Tni cells co-expressing the three subunits: Ni-NTA agarose (6xHis on STN1 and TEN1), then anti-FLAG resin (2xFLAG on CTC1), eluted with 3xFLAG peptide; 300 mM NaCl, 15 mM imidazole pH 8.0, 50 mM HEPES pH 7.4, 1 mM DTT, 4°C; checked by SDS-PAGE

| Binder | binding |
| --- | --- |
| B1 | binds |
| B2 | binds |
